These are yes or no findings as the source states them, for the method shown. Binding seen in cells or lysates may run through a third protein. Here binding means that the protein was enriched with, or labelled near, the bait; the list need not be complete.

By UniProt entry, the sequences of proteins in these tests, tags left out.
UniProt Q39011: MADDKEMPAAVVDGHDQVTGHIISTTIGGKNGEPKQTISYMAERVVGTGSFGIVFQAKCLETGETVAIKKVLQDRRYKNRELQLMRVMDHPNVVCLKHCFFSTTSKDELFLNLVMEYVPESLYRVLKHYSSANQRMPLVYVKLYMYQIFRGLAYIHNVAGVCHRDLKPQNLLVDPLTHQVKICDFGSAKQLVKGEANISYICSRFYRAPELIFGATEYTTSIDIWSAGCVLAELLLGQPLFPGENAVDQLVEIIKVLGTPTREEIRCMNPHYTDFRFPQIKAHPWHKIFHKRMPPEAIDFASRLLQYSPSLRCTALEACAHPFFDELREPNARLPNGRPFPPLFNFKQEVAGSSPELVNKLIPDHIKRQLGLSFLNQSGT

To fix the notation:
B1: AtSK12 (BIN2 homolog) (enzyme, UniProt P43289 1-409)
chain: MASVGIEPSAAVRESTGNVTDADRLPEEMKDMKIQDDKEMEATIVNGNVTETGHIIVTTIGGRNGQPKQTISYMAERVVGHGSFGVVFQAKCLETGETVAIKKVLQDRRYKNRELQTMRLLDHPNVVSLKHCFFSTTEKDELYLNLVLEYVPETVHRVIKHYNKLNQRMPLVYVKLYTYQIFRSLSYIHRCIGVCHRDIKPQNLLVNPHTHQVKLCDFGSAKVLVKGEPNISYICSRYYRAPELIFGATEYTTAIDVWSAGCVLAELLLGQPLFPGESGVDQLVEIIKVLGTPTREEIKCMNPNYTEFKFPQIKAHPWHKIFHKRMPPEAVDLVSRLLQYSPNLRCAALDSLVHPFFDELRDPNARLPNGRFLPPLFNFKPHELKGVPVEMVAKLVPEHARKQCPWLSL
B2: At5g18610 (protein, UniProt Q1PDV6 1-513)
chain: MSGCLPCFGSSAKDAASKDSVKKELSAKDGSVTQSHHISLDKSKSRRGPEQKKELTAPKEGPTAHIAAQTFTFRELAAATKNFRPECLLGEGGFGRVYKGRLETTGQIVAVKQLDRNGLQGNREFLVEVLMLSLLHHPNLVNLIGYCADGDQRLLVYEYMPLGSLEDHLHDLPPDKEPLDWSTRMTIAAGAAKGLEYLHDKANPPVIYRDLKSSNILLGDGYHPKLSDFGLAKLGPVGDKTHVSTRVMGTYGYCAPEYAMTGQLTLKSDVYSFGVVFLELITGRKAIDNARAPGEHNLVAWARPLFKDRRKFPKMADPSLQGRYPMRGLYQALAVAAMCLQEQAATRPLIGDVVTALTYLASQTFDPNAPSGQNSRSGSGPPFIRTRDDRRSLGDGSSLDSPAETRSRLGSPATHKNSPDYRRRDMVREVNAGSEGGSETGGGSGRKWGLSDLEGQESQRGSPASVGRSSRGTPRNRDLDRERAVAEAKVWGENWRERKRATNGPGSFDSTND
B3: At5g11710 (protein, UniProt Q8VY07 1-560)
chain: MDFMKVFDQTVREIKREVNLKVLKVPEMEQKVLDATDNEPWGPHGTALAEIAQATKKFSECQMVMSVLWTRLSETGKDWRYVYKALAVIDYLISNGSERAVDEIIEHTYQISSLTSFEYVEPNGKDVGINVRKKAENIVALLNNKEKISEIRDKAVANRNKYVGLSSTGITYKSGSSASFGGSFQSGSSNFDSYKDRDSREDKNDYESFQKSRRGVKTEEQSYTSKKSFSRYGSTDHDNLSSGKKSPDSAKHRSYVSAAPSNNDDDFDDFDPRGTSSNKPSTGSANQVDLFGGDLIGDFLDSGPTETSSTNNNENFQEADLFADAAFVSASAQGAEFGSQTQKQVDLFSASEPSVTVSSAPPTVDLFASSESVVSPEAKISIPESMATPNIVDPFAAVPMDNFDGSDPFGAFTSHSASVSTGPQAPSVHGSATNTTSPLSFADSKPQHLQKKDPFQVKSGIWADSLSRGLIDLNITAPKKASLADVGVVGDLSNEDGNKASAASYYSGWSMGAGSGLGKTGLYSTQQQQQQQQQQQAPDISDDFFSSLSNQRYQSGGFKQ
B4: NONPHOTOTROPIC HYPOCOTYL3 (protein, UniProt Q9FMF5 1-746)
chain: MMWESESDGGVGVGGGGGREYGDGVLSSNKHGGVKTDGFELRGQSWFVATDIPSDLLVKIGDMNFHLHKYPLLSRSGKMNRLIYESRDPDPTILILDDLPGGPEAFELASKFCYGVPVDLTATNISGLRCAAEYLEMTEDLEEGNLIFKTEAFLSYVVLSSWRDSILVLKSCEKLSPWAENLQIVRRCSESIAWKACSNPKGIRWAYTGKAPSPSTTNFAGSSPRWNESKDSSFYCSPSRNTNSQPVPPDWWFEDVSILRIDHFVRVITAIKVKGMRFELLGAVIMHYAGKWLPGLIKEGGVAIAPAMSSAIGGGLGLGGDEMSISCGSNSSGGSSGPDWKGGLHMVLSAGKTNGHQDSVACLAGLGISPKDQRMIVESLISIIPPQKDSVTCSFLLRLLRAANMLKVAPALITELEKRVGMQFEQATLQDLLIPGYNNKGETMYDVDLVQRLLEHFLVQEQTEGSSPSRMSPSPSQSMYADIPRGNNNNGGGGGGNNQNAKMRVARLVDSYLTEVARDRNLPLTKFQVLAEALPESARTCDDGLYRAIDSYLKAHPTLSEHERKRLCRVMDCQKLSMDACMHAAQNERLPLRVVVQVLFSEQVKISNALANTSLKESTTLGEAMGTYQPMIPNRKTLIEATPQSFQEGWAAAKKDINTLKFELETVKTKYVELQNEMEVMQRQFEKTGKVKNTPSSSAWTSGWKKLSKLTKMSGQESHDISSGGEQAGVDHPPPRKPRRWRNSIS
B5: At1g16860 (protein, UniProt Q9FZ45 1-474)
chain: MGSRYPSHQLSNGLFVSGRPEQPKERAPTMSAVAMPYTGGDIKRSGELGKMFDIPADGTKSRKSGPIPGAPSRSGSFAGTAQSGPGAPMATGRMSGSLASAGSVSMKKTNSGPLSKHGEPLKKSSGPQSGGVTRQNSGSIPILPATGLITSGPITSGPLNSSGAPRKVSGPLDSSGLMKSHMPTVVHNQAVTTLGPEDDFSCLKSFPKPVLWLVVLIFIMGFLAGGFILGAVHNPILLVVVAILFTVVAALFIWNICWGRRGITDFIARYPDADLRTAKNGQHVKVTGVVTCGNVPLESSFHRVPRCVYTSTCLYEYRGWGSKPANSSHRHFTWGLRSSERHVVDFYISDFQSGLRALVKTGSGAKVTPLVDDSVVIDFKQGSEQVSPDFVRWLGKKNLTSDDRIMRLKEGYIKEGSTVSVIGVVQRNDNVLMIVPSSEPLAAGWQWRRCTFPTSLEGIVLRCEDSSNVDAIPV
B6: At3g20250 (protein, UniProt Q9LJX4 1-961)
chain: MTTTQSAMRMVEGDHIKNWQASSDSGIFGSLDMAVEDLGFLMKRNRLDSGDQTGKFPSRSESAPPSMEGSFAALRNLLKQQEGSSSEVLSRAIENYDSEEEIRSDPAYVAYYLSNINLNPRLPPPLISRENQHLLRHFGDNNQSPTTSWDNMGIRSSLHSSRTALSTHREEPEDEASSGEQQSYASLAGRRKSIADMIQEDFPLTLSSVFKRPHSAGNRPIAQDIHAISSDTSSEHARRLPESDINSVNLLRETDSLSSDAIASEDPFTTDLASQSFTNAQTERLNARQASHEDNNLSVFGASPPSSVASRMRRNQEDQQSQGRRMPPQYTPSSYQVQASSPQQMSYPRIGGTQDMMQSLPKIATGEVHSTFQSPHGLAPPPMYTSTAAYMTSLSPFYHQNFQSSGMFVPQYNYGGYPPASGIVPQYMSGYPSHEATVPMPYDISSTSSGYNNPRLLPGVSSSGQNIPSLVDPFQLQYFQQAQVDAYAPPFQSSTDSFGQKDQQAVGYMANHEPLNSPLSPGYGLQSPRHMGNYFAVPPGVRVMPQYPGSPLASPVMPSSPVGGMMSHFGRRSETRYHQQGPSRNTGIYPGGWQGNRGGASSIVDDLKRHSFLDELKSPNARKLELSDIAGRVVEFSVDQHGSRFIQQKLEHCSDEEKASVFSEVLPQASKLMTDVFGNYVIQKFIEHGTPAQREELVKQLAGQMVSLSLQMYGCRVIQKALEVIDVDQKTELIRELDGNVLKCVRDQNGNHVIQKCIESMPAGRIGFVIAAFRGQVATLSTHPYGCRVIQRILEHCSDDEETHCIIDEILESAFALAHDQYGNYVTQHVLERGKPDERRQIIEKLTGNVVQMSQHKYASNVVEKCLEHADSTEREFLIEEIMGKSEEDNHLLAMMKDQFANYVVQKVLEISKDQQREILVQRMKIHLQSLRKYTYGKHIVARFEQLFGEESEVSEEGTEG
B7: At5g03040 (protein, UniProt Q93ZH7 1-461)
chain: MGKKAKWFSSVKKAFSPDSKKSKQKLAEGQNGVISNPPVVDNVRQSSSSPPPALAPREVRVAEVIVERNRDLSPPSTADAVNVTATDVPVVPSSSAPGVVRRATPTRFAGKSNEEAAAILIQTIFRGYLARRALRAMRGLVRLKLLMEGSVVKRQAANTLKCMQTLSRVQSQIRARRIRMSEENQARQKQLLQKHAKELAGLKNGDNWNDSIQSKEKVEANLLSKYEATMRRERALAYSYSHQQNWKNNSKSGNPMFMDPSNPTWGWSWLERWMAGRPLESSEKEQSNSNNDNAASVKGSINRNEAAKSLTRNGSTQPNTPSSARGTPRNKNSFFSPPTPSRLNQSSRKSNDDDSKSTISVLSERNRRHSIAGSSVRDDESLAGSPALPSYMVPTKSARARLKPQSPLGGTTQENEGFTDKASAKKRLSYPTSPALPKPRRFSAPPKVESGGVTVTNGAGS
B8: MILDEW … LOCUS O 2 (protein, UniProt Q9SXB6 1-573)
chain: MADQVKERTLEETSTWAVAVVCFVLLFISIVLEHSIHKIGTWFKKKHKQALFEALEKVKAELMLLGFISLLLTIGQTPISNICISQKVASTMHPCSAAEEAKKYGKKDAGKKDDGDGDKPGRRLLLELAESYIHRRSLATKGYDKCAEKGKVAFVSAYGIHQLHIFIFVLAVVHVVYCIVTYAFGKIKMRTWKSWEEETKTIEYQYSNDPERFRFARDTSFGRRHLNFWSKTRVTLWIVCFFRQFFGSVTKVDYLALRHGFIMAHFAPGNESRFDFRKYIQRSLEKDFKTVVEISPVIWFVAVLFLLTNSYGLRSYLWLPFIPLVVILIVGTKLEVIITKLGLRIQEKGDVVRGAPVVQPGDDLFWFGKPRFILFLIHLVLFTNAFQLAFFAWSTYEFNLNNCFHESTADVVIRLVVGAVVQILCSYVTLPLYALVTQMGSKMKPTVFNDRVATALKKWHHTAKNETKHGRHSGSNTPFSSRPTTPTHGSSPIHLLHNFNNRSVENYPSSPSPRYSGHGHHEHQFWDPESQHQEAETSTHHSLAHESSEPVLASVELPPIRTSKSLRDFSFKK
B9: At5g05970 (protein, UniProt B3H5K9 1-782)
chain: MMSNLVEPSWRLLAASGGDTVKLFDVSADSGDPCVLSYTPSPGCAVNSVKWNHTNLVVASTGEDKKISLWRKNGQSLGTVPVTGKDGGDSAEECLSAISFSKKGSRYICSGGTGQIVKIWDLQRKLCIKKLKGHTSTITGVMYNCKDEHLASVSVGGDLIVHNLASGARATELKDPNGQVLRLLDYSRSSRHLLVTAGDDGTVHLWDTTGRSPKMSWLKQHSAPTAGVCFSPSNEKIIASVGMDKKLYTYDSGSRRSSSCIAYEAPFSSLAFGDNGYILVAGTSNGRVVFYDIRGKPQPVTVLHAFSNSEDVTSLSWQTSKPVIVNEKNYTSEMALLGSTVEDSVVIPDPLPSTTPSASQSAMAPGSRGVSASTVNASSVEQTPNRNHLWPSGPLGRLHALRANDSYNDDMGVFSPIIDVSSVEKWADSEGYNNKDHLVVDNKPSSLLFPSSSKGYSFGDNGSKEHPIFDWKPSSTSKQDDPRAAFSSFGSITPTASSKSEDSALTPPEAWGGDKFSEKFNQLANEKFSDKFSHLHAPSRLAVSSTGASTSGSMFSSSRDFPLSHGQTNFANASLEFPRIRDFSSTFETSSTQTDNNLPSSPLFTKGITAPGNIDSLRLSPNFTRRFSTYAERISTTSSFSDGASLSLGGSPKIKKTGSETREEVLNHLLARPETVVATEAGAMPLMNQGGLKQSQTDQQQVMGSSNFTLQLFQRTLEGTLDSFQNSIHDDVRNLHIEILRQFHMHEMEMSKVLSSILENQAEQMKELKLLRKENQELRQRL

The test has as its target BIN2-YFP-TbID (full-length BIN2 fused with YFP and TurboID), in transgenic Arabidopsis (Arabidopsis thaliana) (UniProt Q39011). The test can be described thus: proximity labelling; TbPL-MS: transgenic Arabidopsis seedlings with BIN2-YFP-TbID against YFP-YFP-TbID control, 14N/15N labelling, 50 µM biotin for 3 h, desalting, streptavidin beads, on-bead digestion, LC-MS/MS; BIN2-proximal: ratio >=3 in at least three of four replicates.
As for B1, the binding entry is “binds”.
As for B2, the entry is “binds”; as for B3, “binds”; as for B4, “binds”.
Regarding B5, the binding entry is listed as “binds”.
As for B6, the entry is “binds”; as for B7, “binds”; as for B8, “binds”.
As for B9, the entry is “binds”.

The record behind these values is PMC10015162.
